Results as given in the supplement of paper PMC8728848.
The other results are listed elsewhere or left out.

Assays:
Assay in all cases: glycan array binding signal (z-score within array); higher = stronger binding
Details in all cases: glycan notation: IUPAC condensed, linker removed
[1] = target: Fuc(a1-2)Gal(b1-4)GlcNAc(b1-3)Gal(b1-4)GlcNAc(b1-3)Gal(b1-4)GlcNAc
In short: (§1)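 From the Consortium for Functional Glycomics database, 3228 arrays were curated, keeping only those whose protein sequence was available. Binding is given as a within-array Z-score averaged across arrays sharing a protein sequence and across linkers. Negative Z-scores can be read as non-binding.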

[2] = target: Fuc(a1-2)Gal(b1-4)GlcNAc(b1-3)GalNAc
In short: as §1

[3] = target: Fuc(a1-2)Gal(b1-4)GlcNAc(b1-3)[Fuc(a1-2)Gal(b1-4)GlcNAc(b1-6)]GalNAc
In short: as §1

[4] = target: Fuc(a1-2)Gal(b1-4)GlcNAc(b1-6)GalNAc
In short: as §1

[5] = target: Fuc(a1-2)Gal(b1-4)GlcNAc6S
In short: as §1

[6] = target: Fuc(a1-2)Gal(b1-4)[Fuc(a1-3)]GlcNAc
In short: as §1

[7] = target: Fuc(a1-2)Gal(b1-4)[Fuc(a1-3)]GlcNAc(b1-2)Man(a1-3)[Fuc(a1-2)Gal(b1-4)[Fuc(a1-3)]GlcNAc(b1-2)Man(a1-6)]Man(b1-4)GlcNAc(b1-4)GlcNAc
In short: as §1

[8] = target: Fuc(a1-2)Gal(b1-4)[Fuc(a1-3)]GlcNAc(b1-2)Man(a1-6)[Fuc(a1-2)Gal(b1-4)[Fuc(a1-3)]GlcNAc(b1-2)Man(a1-3)]Man(b1-4)GlcNAc(b1-4)[Fuc(a1-6)]GlcNAc
In short: as §1

[9] = target: Fuc(a1-2)Gal(b1-4)[Fuc(a1-3)]GlcNAc(b1-2)[Fuc(a1-2)Gal(b1-4)[Fuc(a1-3)]GlcNAc(b1-4)]Man(a1-3)[Fuc(a1-2)Gal(b1-4)[Fuc(a1-3)]GlcNAc(b1-2)Man(a1-6)]Man(b1-4)GlcNAc(b1-4)GlcNAc
In short: as §1

[10] = target: Fuc(a1-2)Gal(b1-4)[Fuc(a1-3)]GlcNAc(b1-3)Gal(b1-4)[Fuc(a1-3)]GlcNAc
In short: as §1

[11] = target: Fuc(a1-2)Gal(b1-4)[Fuc(a1-3)]GlcNAc(b1-3)Gal(b1-4)[Fuc(a1-3)]GlcNAc(b1-3)Gal(b1-4)[Fuc(a1-3)]GlcNAc
In short: as §1

[12] = target: Fuc(a1-2)Gal(b1-4)[Fuc(a1-3)]GlcNAc(b1-3)GalNAc
In short: as §1

[13] = target: Fuc(a1-2)Gal(b1-4)[Fuc(a1-3)]GlcNAc(b1-3)[Neu5Ac(a2-6)Gal(b1-4)GlcNAc(b1-6)]Gal(b1-4)Glc
In short: as §1

[14] = target: Fuc(a1-2)Gal6S(b1-3)GlcNAc
In short: as §1

[15] = target: Fuc(a1-2)Gal6S(b1-3)GlcNAc6S
In short: as §1

Fuc(a1-2)Gal6S(b1-4)Glc = target: Fuc(a1-2)Gal6S(b1-4)Glc
In short: as §1

[16] = target: Fuc(a1-2)Gal6S(b1-4)Glc6S
In short: as §1

[17] = target: Fuc(a1-2)Gal6S(b1-4)GlcNAc
In short: as §1

Fuc(a1-2)[Gal(a1-3)]Gal = target: Fuc(a1-2)[Gal(a1-3)]Gal
In short: as §1

[18] = target: Fuc(a1-2)[Gal(a1-3)]Gal(b1-3)GalNAc
In short: as §1

[19] = target: Fuc(a1-2)[Gal(a1-3)]Gal(b1-3)GlcNAc
In short: as §1

[20] = target: Fuc(a1-2)[Gal(a1-3)]Gal(b1-3)GlcNAc(b1-2)Man(a1-3)[Fuc(a1-2)[Gal(a1-3)]Gal(b1-3)GlcNAc(b1-2)Man(a1-6)]Man(b1-4)GlcNAc(b1-4)GlcNAc
In short: as §1

[21] = target: Fuc(a1-2)[Gal(a1-3)]Gal(b1-3)GlcNAc(b1-2)Man(a1-3)[Fuc(a1-2)[Gal(a1-3)]Gal(b1-3)GlcNAc(b1-2)Man(a1-6)]Man(b1-4)GlcNAc(b1-4)[Fuc(a1-6)]GlcNAc
In short: as §1

[22] = target: Fuc(a1-2)[Gal(a1-3)]Gal(b1-3)GlcNAc(b1-3)GalNAc
In short: as §1

[23] = target: Fuc(a1-2)[Gal(a1-3)]Gal(b1-4)Glc
In short: as §1

[24] = target: Fuc(a1-2)[Gal(a1-3)]Gal(b1-4)GlcNAc
In short: as §1

[25] = target: Fuc(a1-2)[Gal(a1-3)]Gal(b1-4)GlcNAc(b1-2)Man(a1-3)[Fuc(a1-2)[Gal(a1-3)]Gal(b1-4)GlcNAc(b1-2)Man(a1-6)]Man(b1-4)GlcNAc(b1-4)GlcNAc
In short: as §1

[26] = target: Fuc(a1-2)[Gal(a1-3)]Gal(b1-4)GlcNAc(b1-2)Man(a1-3)[Fuc(a1-2)[Gal(a1-3)]Gal(b1-4)GlcNAc(b1-2)Man(a1-6)]Man(b1-4)GlcNAc(b1-4)[Fuc(a1-6)]GlcNAc
In short: as §1

[27] = target: Fuc(a1-2)[Gal(a1-3)]Gal(b1-4)GlcNAc(b1-3)GalNAc
In short: as §1

[28] = target: Fuc(a1-2)[Gal(a1-3)]Gal(b1-4)GlcNAc(b1-6)GalNAc
In short: as §1

[29] = target: Fuc(a1-2)[Gal(a1-3)]Gal(b1-4)[Fuc(a1-3)]Glc
In short: as §1

[30] = target: Fuc(a1-2)[Gal(a1-3)]Gal(b1-4)[Fuc(a1-3)]GlcNAc
In short: as §1

[31] = target: Fuc(a1-2)[Gal(a1-3)]Gal(b1-4)[Fuc(a1-3)]GlcNAc(b1-3)GalNAc
In short: as §1

[32] = target: Fuc(a1-2)[Gal(a1-4)]Gal(b1-4)GlcNAc
In short: as §1

[33] = target: Fuc(a1-2)[GalNAc(a1-3)]Gal
In short: as §1

[34] = target: Fuc(a1-2)[GalNAc(a1-3)]Gal(b1-3)GalNAc(a1-3)[Fuc(a1-2)]Gal(b1-4)GlcNAc
In short: as §1

[35] = target: Fuc(a1-2)[GalNAc(a1-3)]Gal(b1-3)GlcNAc
In short: as §1

B1: CALR truncated at D342 (Homo sapiens) (protein)
chain: EPAVYFKEQFLDGDGWTSRWIESKHKSDFGKFVLSSGKFYGDEEKDKGLQTSQDARFYALSASFEPFSNKGQTLVVQFTVKHEQNIDCGGGYVKLFPNSLDQTDMHGDSEYNIMFGPDICGPGTKKVHVIFNYKGKNVLINKDIRCKDDEFTHLYTLIVRPDNTYEVKIDNSQVESGSLEDDWDFLPPKKIKDPDASKPEDWDERAKIDDPTDSKPEDWDKPEHIPDPDAKKPEDWDEEMDGEWEPPVIQNPEYKGEWKPRQIDNPDYKGTWIHPEIDNPEYSPDPSIYAYDNFGVLGLDLWQVKSGTIFDNFLITNDEAYAEEFGNETWGVTKAAEKQMKD
glycan array binding signal (z-score) [1]: 2.11 | glycan array binding signal (z-score) [2]: 0.339 | glycan array binding signal (z-score) [3]: 2 | glycan array binding signal (z-score) [4]: 0.971 | glycan array binding signal (z-score) [5]: -0.068 | glycan array binding signal (z-score) [6]: 0.02 | glycan array binding signal (z-score) [7]: 1.26 | glycan array binding signal (z-score) [8]: 1.04 | glycan array binding signal (z-score) [9]: 2.8 | glycan array binding signal (z-score) [10]: -0.688 | glycan array binding signal (z-score) [11]: -0.783 | glycan array binding signal (z-score) [12]: 1.28 | glycan array binding signal (z-score) [13]: -0.693 | glycan array binding signal (z-score) [14]: 1.03 | glycan array binding signal (z-score) [15]: 0.958 | glycan array binding signal (z-score) (Fuc(a1-2)Gal6S(b1-4)Glc): -0.856 | glycan array binding signal (z-score) [16]: 0.034 | glycan array binding signal (z-score) [17]: -2.21 | glycan array binding signal (z-score) (Fuc(a1-2)[Gal(a1-3)]Gal): 1.78 | glycan array binding signal (z-score) [18]: 0.091 | glycan array binding signal (z-score) [19]: 0.52 | glycan array binding signal (z-score) [20]: 0.715 | glycan array binding signal (z-score) [21]: 1.85 | glycan array binding signal (z-score) [22]: -0.585 | glycan array binding signal (z-score) [23]: -0.897 | glycan array binding signal (z-score) [24]: -0.602 | glycan array binding signal (z-score) [25]: 0.479 | glycan array binding signal (z-score) [26]: -0.488 | glycan array binding signal (z-score) [27]: -0.131 | glycan array binding signal (z-score) [28]: -0.397 | glycan array binding signal (z-score) [29]: 1.12 | glycan array binding signal (z-score) [30]: -0.484 | glycan array binding signal (z-score) [31]: -0.083 | glycan array binding signal (z-score) [32]: -1.31 | glycan array binding signal (z-score) [33]: -1.15 | glycan array binding signal (z-score) [34]: -0.154 | glycan array binding signal (z-score) [35]: -0.084
